# Results deposited as PubChem BioAssay AID1259405 (NCATS, 2018).
# Purpose: 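Silenced genes that increase secreted GFP made by CHO cells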 (primary screen)
# Cells: Chinese hamster CHO-K1 ovary cells with stable secreted eGFP expression
# Knock-down reagent: single siRNA against mouse genes, 0.8 pmol siRNA per well (2 µl of 400 nM stock)
# Timing: 3 days
# Measurement: 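Percent of the per-plate non-targeting control median for intracellular GFP per well by laser scanning cytometry and for cell viability by ATP luminescence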
# Reading the numbers: GFP, % of control: higher = more GFP per well, higher productivity; viability (ATP), % of control: higher = more viable cells (more ATP)
# Hit rule: 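Called active when intracellular GFP, relative to negative control, is at or above 120%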
# This is a random part of about 50,000 reagents. About 4,000 of all reagents (8%) were called active. 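Mouse siRNA library applied to hamster cells; one well for each siRNA.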
The first 12 entries as a preview:
gene symbol,PubChem SID,"GFP, % of control","viability (ATP), % of control",activity call
Acot11 (GeneID 329910),SID363545467,29.6,37,inactive
Acot11 (GeneID 329910),SID363548980,96.5,85.7,inactive
Acot11 (GeneID 329910),SID363562786,77.3,62.1,inactive
Abcd1 (GeneID 11666),SID363574663,76.4,80.7,inactive
Abcd1 (GeneID 11666),SID363575719,115,103,inactive
Abcd1 (GeneID 11666),SID363580295,58.7,85.9,inactive
Sirt2 (GeneID 64383),SID363584515,80,80.3,inactive
Sirt2 (GeneID 64383),SID363589545,75.6,65.4,inactive
Or8b1b (GeneID 258797),SID363554665,74.9,61.7,inactive
Or8b1b (GeneID 258797),SID363568112,62.6,66.8,inactive
Or8b1b (GeneID 258797),SID363586171,82.3,21.3,inactive
Crybg3 (GeneID 224273),SID363546946,65.1,45.3,inactive

The listing, repeating the preview:
gene symbol,PubChem SID,"GFP, % of control","viability (ATP), % of control",activity call
Acot11 (GeneID 329910),SID363545467,29.6,37,inactive
Acot11 (GeneID 329910),SID363548980,96.5,85.7,inactive
Acot11 (GeneID 329910),SID363562786,77.3,62.1,inactive
Abcd1 (GeneID 11666),SID363574663,76.4,80.7,inactive
Abcd1 (GeneID 11666),SID363575719,115,103,inactive
Abcd1 (GeneID 11666),SID363580295,58.7,85.9,inactive
Sirt2 (GeneID 64383),SID363584515,80,80.3,inactive
Sirt2 (GeneID 64383),SID363589545,75.6,65.4,inactive
Or8b1b (GeneID 258797),SID363554665,74.9,61.7,inactive
Or8b1b (GeneID 258797),SID363568112,62.6,66.8,inactive
Or8b1b (GeneID 258797),SID363586171,82.3,21.3,inactive
Crybg3 (GeneID 224273),SID363546946,65.1,45.3,inactive
Crybg3 (GeneID 224273),SID363549758,78,73.2,inactive
Crybg3 (GeneID 224273),SID363587812,69.1,97.1,inactive
Plpp1 (GeneID 19012),SID363547562,69.8,51.2,inactive
Plpp1 (GeneID 19012),SID363558331,61,63,inactive
Plpp1 (GeneID 19012),SID363560089,99.9,74.5,inactive
Rnf126 (GeneID 70294),SID363555058,124,82.7,active
Rnf126 (GeneID 70294),SID363568505,63.2,52.9,inactive
Rnf126 (GeneID 70294),SID363586564,0.865,162,inactive
Dpm3 (GeneID 68563),SID363539604,105,103,inactive
Dpm3 (GeneID 68563),SID363560905,115,101,inactive
Dpm3 (GeneID 68563),SID363564995,36.4,24.6,inactive
Taf7l (GeneID 74469),SID363540896,56.4,54.7,inactive
Taf7l (GeneID 74469),SID363555523,64.7,73.9,inactive
Taf7l (GeneID 74469),SID363565812,76.3,87.1,inactive
Pgrmc1 (GeneID 53328),SID363568639,117,123,inactive
Pgrmc1 (GeneID 53328),SID363576031,87.4,65.6,inactive
Pgrmc1 (GeneID 53328),SID363578847,67.6,82.3,inactive
Tmprss12 (GeneID 75002),SID363569234,80.6,105,inactive
Tmprss12 (GeneID 75002),SID363583666,58,67.4,inactive
Fastk (GeneID 66587),SID363571024,33.8,48.3,inactive
Magea2 (GeneID 17138),SID363562337,49.4,36,inactive
Magea2 (GeneID 17138),SID363567475,79.6,57.1,inactive
Magea2 (GeneID 17138),SID363584832,91,92.8,inactive
Csrnp3 (GeneID 77771),SID363542719,95.9,68.7,inactive
Csrnp3 (GeneID 77771),SID363546236,91.4,91.4,inactive
Csrnp3 (GeneID 77771),SID363547992,86.3,77.4,inactive
Or7e170 (GeneID 258555),SID363554565,28.4,30.8,inactive
Or7e170 (GeneID 258555),SID363568012,58.5,61.7,inactive
Or7e170 (GeneID 258555),SID363586071,109,114,inactive
Orai1 (GeneID 109305),SID363539777,73.5,110,inactive
Orai1 (GeneID 109305),SID363561078,75.4,105,inactive
Orai1 (GeneID 109305),SID363565168,84.4,87.9,inactive
2510009E07Rik (GeneID 72190),SID363543839,45.8,77.7,inactive
2510009E07Rik (GeneID 72190),SID363551575,57.6,72.7,inactive
2510009E07Rik (GeneID 72190),SID363559180,52.3,60.6,inactive
Il12b (GeneID 16160),SID363541472,48.2,47,inactive
Il12b (GeneID 16160),SID363556099,55.9,51.5,inactive
Il12b (GeneID 16160),SID363566388,83.6,83.4,inactive
Dctn4 (GeneID 67665),SID363541124,69.4,78.5,inactive
Dctn4 (GeneID 67665),SID363555751,66,73.1,inactive
Dctn4 (GeneID 67665),SID363566040,59.3,63.2,inactive
Ncs1 (GeneID 14299),SID363570346,96.7,89.4,inactive
Ncs1 (GeneID 14299),SID363576682,71.9,84.2,inactive
Ncs1 (GeneID 14299),SID363579850,53.6,90.7,inactive
Kdg4 (GeneID 66128),SID363562277,115,69.1,inactive
Kdg4 (GeneID 66128),SID363567415,71.7,33.7,inactive
Kdg4 (GeneID 66128),SID363584772,70.4,69.8,inactive
Chchd2 (GeneID 14004),SID363550062,88.8,81.3,inactive
Chchd2 (GeneID 14004),SID363564571,112,105,inactive
Chchd2 (GeneID 14004),SID363588116,134,121,active
Fbxl6 (GeneID 30840),SID363539989,78.9,78.2,inactive
Fbxl6 (GeneID 30840),SID363561290,88,66.8,inactive
Fbxl6 (GeneID 30840),SID363564326,105,91.9,inactive
Trim56 (GeneID 384309),SID363572650,61.4,66.8,inactive
Trim56 (GeneID 384309),SID363577930,95.2,106,inactive
Trim56 (GeneID 384309),SID363582154,97.2,122,inactive
Blk (GeneID 12143),SID363571061,83.8,76.4,inactive
Gm5600 (GeneID 108167501),SID363540418,82,85.9,inactive
Gm5600 (GeneID 108167501),SID363542170,74.5,69.6,inactive
Gm5600 (GeneID 108167501),SID363567086,151,74.4,active
Clvs2 (GeneID 215890),SID363542684,117,66.5,inactive
Clvs2 (GeneID 215890),SID363546201,88.4,66.2,inactive
Clvs2 (GeneID 215890),SID363547957,72.4,81.4,inactive
Vwa7 (GeneID 27762),SID363539754,88.3,112,inactive
Vwa7 (GeneID 27762),SID363561055,88.3,88,inactive
Vwa7 (GeneID 27762),SID363565145,69.5,87.6,inactive
Mpv17l2 (GeneID 234384),SID363544241,65.5,49.8,inactive
Mpv17l2 (GeneID 234384),SID363550569,70.8,72,inactive
Mpv17l2 (GeneID 234384),SID363557118,28.6,24.7,inactive
Slc44a2 (GeneID 68682),SID363547828,20.3,40.1,inactive
Slc44a2 (GeneID 68682),SID363558597,83,62.9,inactive
Slc44a2 (GeneID 68682),SID363560355,82.1,98.1,inactive
Il1rapl2 (GeneID 60367),SID363544218,85.3,39.6,inactive
Il1rapl2 (GeneID 60367),SID363550546,75.1,77.2,inactive
Il1rapl2 (GeneID 60367),SID363557095,51.4,52.6,inactive
Psmc2 (GeneID 19181),SID363569605,67.9,64.1,inactive
Psmc2 (GeneID 19181),SID363577349,96.3,104,inactive
Psmc2 (GeneID 19181),SID363578757,101,83.9,inactive
Clec2g (GeneID 70809),SID363544618,81.3,89.9,inactive
Clec2g (GeneID 70809),SID363550946,63.1,68.1,inactive
Clec2g (GeneID 70809),SID363557495,70.8,84.9,inactive
4921504E06Rik (GeneID 70909),SID363542288,51.9,41.2,inactive
4921504E06Rik (GeneID 70909),SID363551779,82.9,80.5,inactive
4921504E06Rik (GeneID 70909),SID363559384,74.7,60.8,inactive
Dexi (GeneID 58239),SID363539794,95,97.9,inactive
Dexi (GeneID 58239),SID363561095,124,106,active
Dexi (GeneID 58239),SID363565185,121,47.2,active
Med25 (GeneID 75613),SID363573183,73.8,62.1,inactive
Med25 (GeneID 75613),SID363588422,85.1,92.8,inactive
Lims1 (GeneID 110829),SID363572328,101,78.4,inactive
Lims1 (GeneID 110829),SID363574088,64.3,64,inactive
Grin2a (GeneID 14811),SID363574395,232,83.3,active
Grin2a (GeneID 14811),SID363575451,83.4,71.8,inactive
Grin2a (GeneID 14811),SID363580027,61.8,43.3,inactive
Nudt12 (GeneID 67993),SID363545573,71.9,52.4,inactive
Nudt12 (GeneID 67993),SID363549086,79.4,77.8,inactive
Nudt12 (GeneID 67993),SID363562892,92.3,81.8,inactive
